PubChem BioAssay AID1259308, NCATS, 2017

Screen: 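Knock-downs that increase output of a recombinant reporter protein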 (primary screen)
Cells: human HEK293 embryonic kidney cells stably expressing firefly luciferase (HEK-CMV-Luc2-Hygro)
Knock-down reagent: single siRNA against human genes, 0.8 pmol siRNA per well
Time to read-out: 72 h
Read-out: 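Luciferase light (ONE-Glo) measured on one replicate plate set and viability (CellTiter-Glo) on the other, scaled to a negative control siRNA, with robust z-scores and luciferase per cell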
Scale: total luciferase, z-score and total luciferase, % of control: higher = more reporter protein produced; luciferase per cell, z-score: higher = more reporter output per viable cell; viable cells, % of control: higher = more viable cells
Call rule: 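Active when the median/MAD z-score for overall luciferase is greater than 3; a gene was taken forward for validation with new siRNAs if at least two of its three siRNAs passed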
Meaning of the calls: active = raised luciferase; inactive = no rise
Here is a random part of about 59,000 reagents. About 1,510 of them (2.6%) count as active. 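Calls use total luciferase alone and ignore viability, so some active siRNAs may act by altering cell number.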 The numbers tell different reagents against one gene apart.

target gene | reagent | total luciferase, z-score | total luciferase, % of control | luciferase per cell, z-score | viable cells, % of control | Outcome
LETM1 | 1 | -0.352 | 74.9 | 0.823 | 67.4 | inactive
LETM1 | 2 | -0.872 | 64.5 | -0.447 | 81.1 | inactive
LETM1 | 3 | 0.523 | 92.3 | 0.78 | 84 | inactive
THOC2 | 1 | -1.11 | 59.7 | -1.12 | 89.7 | inactive
THOC2 | 2 | -0.825 | 65.5 | -0.674 | 87.4 | inactive
THOC2 | 3 | -1.98 | 42.5 | -1.98 | 80 | inactive
TVP23C | 1 | -0.632 | 69.3 | -0.394 | 85.9 | inactive
TVP23C | 2 | 0.342 | 88.7 | 0.159 | 95 | inactive
TVP23C | 3 | -0.186 | 78.2 | 1.61 | 57.2 | inactive
CCAR2 | 1 | -1.48 | 52.4 | -0.956 | 75.3 | inactive
CCAR2 | 2 | 0.732 | 96.4 | 0.384 | 97.4 | inactive
CCAR2 | 3 | -0.429 | 73.4 | -0.703 | 98.6 | inactive
RPAP3 | 1 | -0.202 | 77.9 | -0.672 | 104 | inactive
RPAP3 | 2 | 0.593 | 93.7 | -0.128 | 108 | inactive
RPAP3 | 3 | 1.21 | 106 | 0.796 | 95.9 | inactive
SERPINB10 | 1 | -0.588 | 70.2 | -0.625 | 92.5 | inactive
SERPINB10 | 2 | -1.68 | 48.4 | -2.3 | 99.1 | inactive
SERPINB10 | 3 | -0.651 | 68.9 | -1.22 | 106 | inactive
ATP5F1A | 1 | 1.26 | 107 | 0.391 | 108 | inactive
ATP5F1A | 2 | 1.81 | 118 | 1.09 | 98.8 | inactive
ATP5F1A | 3 | -0.357 | 74.8 | -0.565 | 97 | inactive
CHTF8 | 1 | 0.176 | 85.4 | 0.865 | 76 | inactive
CHTF8 | 2 | 1.43 | 110 | 1.53 | 82.4 | inactive
CHTF8 | 3 | 0.0457 | 82.8 | -0.608 | 109 | inactive
LCE1B | 1 | 0.142 | 84.7 | 0.083 | 92.6 | inactive
LCE1B | 2 | 4.43 | 170 | 3.85 | 68.9 | active
LCE1B | 3 | -0.16 | 78.7 | -1.06 | 116 | inactive
XKR3 | 1 | -0.981 | 62.4 | -0.512 | 79.8 | inactive
XKR3 | 2 | -0.717 | 67.6 | -0.348 | 82.8 | inactive
XKR3 | 3 | -2.14 | 39.3 | -1.23 | 60.7 | inactive
FAM221A | 1 | 0.712 | 96 | 0.608 | 91.4 | inactive
FAM221A | 2 | -0.426 | 73.4 | -0.751 | 100 | inactive
FAM221A | 3 | -0.261 | 76.7 | -1.16 | 116 | inactive
TGS1 | 1 | -1.11 | 59.8 | -1.69 | 104 | inactive
TGS1 | 2 | 0.13 | 84.5 | 0.372 | 85.6 | inactive
TGS1 | 3 | -0.504 | 71.9 | -0.744 | 97.7 | inactive
AP2M1 | 1 | 0.505 | 91.9 | 0.66 | 86.3 | inactive
AP2M1 | 2 | 1.43 | 110 | 1.14 | 91.4 | inactive
AP2M1 | 3 | 5.04 | 182 | 3.33 | 84.6 | active
NR1H3 | 1 | -1.02 | 61.6 | -0.982 | 89.2 | inactive
NR1H3 | 2 | 2.46 | 131 | 0.991 | 113 | inactive
NR1H3 | 3 | -0.284 | 76.2 | -0.649 | 101 | inactive
NAA80 | 1 | -0.985 | 62.3 | -0.967 | 89.8 | inactive
NAA80 | 2 | 1.81 | 118 | 1.24 | 94.9 | inactive
NAA80 | 3 | 0.19 | 85.7 | -0.203 | 101 | inactive
USP15 | 1 | -0.645 | 69.1 | -0.977 | 99.8 | inactive
USP15 | 2 | -0.318 | 75.6 | -0.832 | 105 | inactive
USP15 | 3 | -1.2 | 58 | -0.837 | 80.8 | inactive
EIF3J-DT | 1 | 0.698 | 95.8 | 0.644 | 90.3 | inactive
EIF3J-DT | 2 | -0.883 | 64.3 | 0.489 | 63.2 | inactive
EIF3J-DT | 3 | 0.183 | 85.5 | 0.419 | 85.6 | inactive
TLE1 | 1 | 0.381 | 89.5 | 0.394 | 90.1 | inactive
TLE1 | 2 | 0.207 | 86 | 0.423 | 86 | inactive
TLE1 | 3 | -0.52 | 71.5 | -0.951 | 103 | inactive
HSPG2 | 1 | -0.443 | 73.1 | -0.433 | 91.5 | inactive
HSPG2 | 2 | 1.67 | 115 | 1.76 | 81 | inactive
HSPG2 | 3 | -0.00929 | 81.7 | 0.155 | 87.6 | inactive
ATP1A1 | 1 | 0.623 | 94.3 | 1.24 | 76 | inactive
ATP1A1 | 2 | -1.08 | 60.4 | -0.146 | 70.2 | inactive
ATP1A1 | 3 | 1.98 | 121 | 3.35 | 56.1 | inactive
ABCB9 | 1 | 0.0328 | 82.5 | -0.179 | 96.7 | inactive
ABCB9 | 2 | 0.397 | 89.8 | 0.195 | 95.3 | inactive
ABCB9 | 3 | 0.18 | 85.5 | 2.01 | 56.2 | inactive
ZNF443 | 1 | -1.88 | 44.5 | -0.326 | 54.2 | inactive
ZNF443 | 2 | 0.195 | 85.8 | 0.12 | 92.8 | inactive
ZNF443 | 3 | 3.14 | 144 | 1.98 | 95.8 | active
PPP1R9B | 1 | -0.631 | 69.3 | -0.397 | 86 | inactive
PPP1R9B | 2 | -0.682 | 68.3 | -0.677 | 91.3 | inactive
PPP1R9B | 3 | -0.0517 | 80.9 | -0.363 | 99.4 | inactive
IL7R | 1 | -0.324 | 75.4 | -0.322 | 91.8 | inactive
IL7R | 2 | -1.43 | 53.5 | -1.36 | 85.5 | inactive
IL7R | 3 | 1.66 | 115 | 1.58 | 84.6 | inactive
CREB1 | 1 | -1.14 | 59.3 | -1.55 | 99.6 | inactive
CREB1 | 2 | -0.406 | 73.8 | 0.279 | 76.6 | inactive
CREB1 | 3 | -0.268 | 76.6 | -0.158 | 89.2 | inactive

Hits, of those listed so far:
target gene | reagent | total luciferase, z-score | total luciferase, % of control | luciferase per cell, z-score | viable cells, % of control | Outcome
LCE1B | 2 | 4.43 | 170 | 3.85 | 68.9 | active
AP2M1 | 3 | 5.04 | 182 | 3.33 | 84.6 | active
ZNF443 | 3 | 3.14 | 144 | 1.98 | 95.8 | active
